This test addresses T1, Endogenous type II TGF-β receptor of L6 rat skeleton muscle myoblasts (rat) (UniProt P38438).
T1 sequence (looked up): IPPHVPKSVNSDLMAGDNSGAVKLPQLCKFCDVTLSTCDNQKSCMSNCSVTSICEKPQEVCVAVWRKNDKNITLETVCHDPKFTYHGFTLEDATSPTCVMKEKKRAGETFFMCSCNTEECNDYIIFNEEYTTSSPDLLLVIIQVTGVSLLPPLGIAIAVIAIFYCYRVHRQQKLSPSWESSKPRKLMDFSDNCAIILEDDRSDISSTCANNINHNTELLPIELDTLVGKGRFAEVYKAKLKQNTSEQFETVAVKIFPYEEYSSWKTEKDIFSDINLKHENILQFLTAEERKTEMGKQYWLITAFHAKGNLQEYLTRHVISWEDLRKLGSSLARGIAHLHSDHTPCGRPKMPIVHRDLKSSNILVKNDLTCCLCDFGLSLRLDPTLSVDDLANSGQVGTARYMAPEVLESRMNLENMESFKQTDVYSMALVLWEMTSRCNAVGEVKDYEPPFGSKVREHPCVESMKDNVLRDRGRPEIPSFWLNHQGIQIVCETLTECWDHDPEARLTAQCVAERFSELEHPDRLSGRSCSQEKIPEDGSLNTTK
In words: 125I-TGF-β cross-linking on L6 cells overexpressing the type III receptor.

The chains behind the UniProt entries cited, without tags or fusion partners. Residues count along the entry.
UniProt P01137, residues 279-390: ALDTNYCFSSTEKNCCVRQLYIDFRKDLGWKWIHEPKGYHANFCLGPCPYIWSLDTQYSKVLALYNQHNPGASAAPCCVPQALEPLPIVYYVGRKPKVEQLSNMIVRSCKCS

No constants are given. Whether binding was seen depends on the method and setting. Some entries that bind do so weakly or less than the wild type.

As to “Recombinant human TGF-β1 (from UniProt P01137 279-390) (ligand)”, the binding entry is “binds”.

The values above are taken from patent US20080234216A1.
